Here are results for four molecules from paper PMC11011321.

Sequences of proteins named here, by UniProt entry; tags and fusion partners are left off.
UniProt P35222: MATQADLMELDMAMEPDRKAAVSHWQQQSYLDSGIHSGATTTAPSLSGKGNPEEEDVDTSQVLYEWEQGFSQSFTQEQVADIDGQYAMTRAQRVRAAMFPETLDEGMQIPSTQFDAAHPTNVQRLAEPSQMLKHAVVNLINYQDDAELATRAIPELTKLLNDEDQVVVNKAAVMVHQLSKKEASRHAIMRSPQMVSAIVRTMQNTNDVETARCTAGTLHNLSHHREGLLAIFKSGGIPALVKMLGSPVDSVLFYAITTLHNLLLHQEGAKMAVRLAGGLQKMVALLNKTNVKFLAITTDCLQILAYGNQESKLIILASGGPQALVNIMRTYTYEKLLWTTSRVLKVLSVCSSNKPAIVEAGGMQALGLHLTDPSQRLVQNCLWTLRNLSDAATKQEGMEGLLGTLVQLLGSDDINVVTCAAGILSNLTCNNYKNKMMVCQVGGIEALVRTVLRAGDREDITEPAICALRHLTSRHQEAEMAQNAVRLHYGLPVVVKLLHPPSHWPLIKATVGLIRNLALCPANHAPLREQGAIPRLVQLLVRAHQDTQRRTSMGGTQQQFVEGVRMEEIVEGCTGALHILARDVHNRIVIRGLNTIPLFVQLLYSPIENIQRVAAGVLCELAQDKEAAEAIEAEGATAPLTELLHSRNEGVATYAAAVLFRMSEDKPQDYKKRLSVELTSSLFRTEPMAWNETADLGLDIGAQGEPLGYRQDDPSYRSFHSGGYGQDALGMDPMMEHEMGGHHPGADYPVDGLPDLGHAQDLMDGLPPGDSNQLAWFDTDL
UniProt Q9UQE7: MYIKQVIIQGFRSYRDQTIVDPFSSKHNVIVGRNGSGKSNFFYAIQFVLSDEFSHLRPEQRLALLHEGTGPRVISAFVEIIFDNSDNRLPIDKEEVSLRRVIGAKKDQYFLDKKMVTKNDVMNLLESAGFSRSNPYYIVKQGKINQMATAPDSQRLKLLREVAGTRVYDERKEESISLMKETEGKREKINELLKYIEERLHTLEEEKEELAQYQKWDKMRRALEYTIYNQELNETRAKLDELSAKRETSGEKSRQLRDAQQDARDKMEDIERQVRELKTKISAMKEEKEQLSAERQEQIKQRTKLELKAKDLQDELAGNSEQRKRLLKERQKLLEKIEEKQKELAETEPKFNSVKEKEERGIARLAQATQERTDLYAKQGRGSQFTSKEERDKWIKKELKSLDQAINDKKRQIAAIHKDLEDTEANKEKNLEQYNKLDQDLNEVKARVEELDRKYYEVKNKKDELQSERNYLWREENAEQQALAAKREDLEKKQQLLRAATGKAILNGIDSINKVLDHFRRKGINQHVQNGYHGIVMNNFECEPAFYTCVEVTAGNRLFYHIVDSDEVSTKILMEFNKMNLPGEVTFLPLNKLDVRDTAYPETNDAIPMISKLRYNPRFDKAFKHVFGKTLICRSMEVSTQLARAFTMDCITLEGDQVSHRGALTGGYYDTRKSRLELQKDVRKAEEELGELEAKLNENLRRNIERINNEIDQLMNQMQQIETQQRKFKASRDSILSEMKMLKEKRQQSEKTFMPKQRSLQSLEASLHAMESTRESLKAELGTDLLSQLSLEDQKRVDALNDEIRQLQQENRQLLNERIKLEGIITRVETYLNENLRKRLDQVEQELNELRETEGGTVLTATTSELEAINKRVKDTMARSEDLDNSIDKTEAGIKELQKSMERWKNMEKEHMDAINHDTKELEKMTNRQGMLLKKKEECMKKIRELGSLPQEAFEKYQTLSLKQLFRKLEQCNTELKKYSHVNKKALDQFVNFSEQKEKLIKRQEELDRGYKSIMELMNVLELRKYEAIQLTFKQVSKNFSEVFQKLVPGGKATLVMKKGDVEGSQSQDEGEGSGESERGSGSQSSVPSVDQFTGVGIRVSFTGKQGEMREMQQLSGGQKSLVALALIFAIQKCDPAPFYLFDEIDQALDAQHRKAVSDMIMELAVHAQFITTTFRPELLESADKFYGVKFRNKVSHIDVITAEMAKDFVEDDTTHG
UniProt Q6KC79: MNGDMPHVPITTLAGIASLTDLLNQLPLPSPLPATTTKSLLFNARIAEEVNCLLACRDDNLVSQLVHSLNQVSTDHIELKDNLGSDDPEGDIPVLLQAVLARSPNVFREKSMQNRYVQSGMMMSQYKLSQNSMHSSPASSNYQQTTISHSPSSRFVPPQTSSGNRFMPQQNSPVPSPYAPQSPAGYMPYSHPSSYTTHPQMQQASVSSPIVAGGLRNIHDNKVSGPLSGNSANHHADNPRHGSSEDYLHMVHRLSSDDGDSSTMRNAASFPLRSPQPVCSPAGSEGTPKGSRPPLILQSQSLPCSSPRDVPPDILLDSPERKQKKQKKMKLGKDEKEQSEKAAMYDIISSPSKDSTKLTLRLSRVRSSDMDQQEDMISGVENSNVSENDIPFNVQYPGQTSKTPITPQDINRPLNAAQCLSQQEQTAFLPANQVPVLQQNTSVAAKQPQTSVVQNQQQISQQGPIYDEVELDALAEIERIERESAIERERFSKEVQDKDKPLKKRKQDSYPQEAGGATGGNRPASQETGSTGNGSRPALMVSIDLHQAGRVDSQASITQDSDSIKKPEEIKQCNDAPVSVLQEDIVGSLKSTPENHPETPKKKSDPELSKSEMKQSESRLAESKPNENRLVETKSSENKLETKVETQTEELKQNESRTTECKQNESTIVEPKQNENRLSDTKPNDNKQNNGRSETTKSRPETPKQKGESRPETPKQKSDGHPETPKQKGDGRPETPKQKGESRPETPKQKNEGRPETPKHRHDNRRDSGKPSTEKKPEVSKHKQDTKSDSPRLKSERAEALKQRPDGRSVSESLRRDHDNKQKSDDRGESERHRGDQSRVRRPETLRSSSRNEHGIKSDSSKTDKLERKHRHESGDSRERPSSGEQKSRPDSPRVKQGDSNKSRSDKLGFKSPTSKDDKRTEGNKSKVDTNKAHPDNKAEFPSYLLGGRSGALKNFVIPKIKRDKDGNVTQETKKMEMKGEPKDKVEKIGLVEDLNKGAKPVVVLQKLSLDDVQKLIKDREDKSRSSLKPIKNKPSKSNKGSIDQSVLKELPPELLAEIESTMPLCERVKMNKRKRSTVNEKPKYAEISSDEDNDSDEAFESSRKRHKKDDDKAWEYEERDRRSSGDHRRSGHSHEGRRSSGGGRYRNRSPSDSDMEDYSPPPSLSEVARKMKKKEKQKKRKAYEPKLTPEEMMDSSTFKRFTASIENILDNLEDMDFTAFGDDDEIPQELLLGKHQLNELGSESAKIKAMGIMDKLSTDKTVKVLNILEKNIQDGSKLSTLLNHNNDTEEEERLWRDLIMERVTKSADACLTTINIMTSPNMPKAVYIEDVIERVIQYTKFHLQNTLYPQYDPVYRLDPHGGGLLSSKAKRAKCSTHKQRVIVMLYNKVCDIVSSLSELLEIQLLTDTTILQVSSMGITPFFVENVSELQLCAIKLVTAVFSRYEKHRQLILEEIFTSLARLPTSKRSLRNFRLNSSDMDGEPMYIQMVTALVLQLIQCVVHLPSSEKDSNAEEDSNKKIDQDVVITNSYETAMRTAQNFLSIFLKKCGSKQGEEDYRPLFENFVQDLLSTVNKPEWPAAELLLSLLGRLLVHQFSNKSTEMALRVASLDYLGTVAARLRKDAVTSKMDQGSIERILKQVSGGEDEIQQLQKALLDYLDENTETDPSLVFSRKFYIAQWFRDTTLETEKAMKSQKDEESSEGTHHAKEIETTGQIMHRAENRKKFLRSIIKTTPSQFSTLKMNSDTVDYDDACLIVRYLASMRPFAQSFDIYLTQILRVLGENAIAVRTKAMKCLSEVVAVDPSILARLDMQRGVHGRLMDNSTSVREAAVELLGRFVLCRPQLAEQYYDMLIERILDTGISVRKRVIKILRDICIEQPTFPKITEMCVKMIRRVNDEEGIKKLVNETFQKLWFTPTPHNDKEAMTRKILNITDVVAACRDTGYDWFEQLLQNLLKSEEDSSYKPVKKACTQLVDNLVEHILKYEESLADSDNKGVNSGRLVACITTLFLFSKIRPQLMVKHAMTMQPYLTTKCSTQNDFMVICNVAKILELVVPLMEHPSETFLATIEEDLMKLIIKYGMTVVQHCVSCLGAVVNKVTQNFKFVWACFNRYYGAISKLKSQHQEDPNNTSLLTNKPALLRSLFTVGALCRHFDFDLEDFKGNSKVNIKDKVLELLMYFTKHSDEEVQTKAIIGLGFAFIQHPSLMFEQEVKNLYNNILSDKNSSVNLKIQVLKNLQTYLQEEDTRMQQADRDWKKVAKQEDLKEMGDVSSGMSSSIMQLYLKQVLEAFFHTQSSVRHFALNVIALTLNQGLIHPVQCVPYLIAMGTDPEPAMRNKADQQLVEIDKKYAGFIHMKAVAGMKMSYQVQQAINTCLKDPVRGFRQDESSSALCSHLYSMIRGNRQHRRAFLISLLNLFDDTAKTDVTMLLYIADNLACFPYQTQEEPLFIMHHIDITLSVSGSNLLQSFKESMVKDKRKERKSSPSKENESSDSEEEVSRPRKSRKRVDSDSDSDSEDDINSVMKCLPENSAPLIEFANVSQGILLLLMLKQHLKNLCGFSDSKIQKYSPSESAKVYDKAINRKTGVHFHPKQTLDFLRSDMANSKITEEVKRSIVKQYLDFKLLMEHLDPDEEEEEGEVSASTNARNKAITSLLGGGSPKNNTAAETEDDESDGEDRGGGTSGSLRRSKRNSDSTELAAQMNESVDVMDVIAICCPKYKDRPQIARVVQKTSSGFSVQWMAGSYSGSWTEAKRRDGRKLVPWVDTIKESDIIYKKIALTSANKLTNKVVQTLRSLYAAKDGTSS

No constants are given. Whether binding was seen depends on the method and setting. Binding seen in cells or lysates may run through a third protein. Some binding calls cover weakened binding; strength is not graded here.

The chains are these.
B1: RAD21 (protein, UniProt O60216 1-631)
chain: MFYAHFVLSKRGPLAKIWLAAHWDKKLTKAHVFECNLESSVESIISPKVKMALRTSGHLLLGVVRIYHRKAKYLLADCNEAFIKIKMAFRPGVVDLPEENREAAYNAITLPEEFHDFDQPLPDLDDIDVAQQFSLNQSRVEEITMREEVGNISILQENDFGDFGMDDREIMREGSAFEDDDMLVSTTTSNLLLESEQSTSNLNEKINHLEYEDQYKDDNFGEGNDGGILDDKLISNNDGGIFDDPPALSEAGVMLPEQPAHDDMDEDDNVSMGGPDSPDSVDPVEPMPTMTDQTTLVPNEEEAFALEPIDITVKETKAKRKRKLIVDSVKELDSKTIRAQLSDYSDIVTTLDLAPPTKKLMMWKETGGVEKLFSLPAQPLWNNRLLKLFTRCLTPLVPEDLRKRRKGGEADNLDEFLKEFENPEVPREDQQQQHQQRDVIDEPIIEEPSRLQESVMEASRTNIDESAMPPPPPQGVKRKAGQIDPEPVMPPQQVEQMEIPPVELPPEEPPNICQLIPELELLPEKEKEKEKEKEDDEEEEDEDASGGDQDQEERRWNKRTQQMLHGLQRALAKTGAESISLLELCRNTNRKQAAAKFYSFLVLKKQQAIELTQEEPYSDIIATPGPRFHII
B2: SMC1A (protein, UniProt Q14683 1-1233)
chain: MGFLKLIEIENFKSYKGRQIIGPFQRFTAIIGPNGSGKSNLMDAISFVLGEKTSNLRVKTLRDLIHGAPVGKPAANRAFVSMVYSEEGAEDRTFARVIVGGSSEYKINNKVVQLHEYSEELEKLGILIKARNFLVFQGAVESIAMKNPKERTALFEEISRSGELAQEYDKRKKEMVKAEEDTQFNYHRKKNIAAERKEAKQEKEEADRYQRLKDEVVRAQVQLQLFKLYHNEVEIEKLNKELASKNKEIEKDKKRMDKVEDELKEKKKELGKMMREQQQIEKEIKEKDSELNQKRPQYIKAKENTSHKIKKLEAAKKSLQNAQKHYKKRKGDMDELEKEMLSVEKARQEFEERMEEESQSQGRDLTLEENQVKKYHRLKEEASKRAATLAQELEKFNRDQKADQDRLDLEERKKVETEAKIKQKLREIEENQKRIEKLEEYITTSKQSLEEQKKLEGELTEEVEMAKRRIDEINKELNQVMEQLGDARIDRQESSRQQRKAEIMESIKRLYPGSVYGRLIDLCQPTQKKYQIAVTKVLGKNMDAIIVDSEKTGRDCIQYIKEQRGEPETFLPLDYLEVKPTDEKLRELKGAKLVIDVIRYEPPHIKKALQYACGNALVCDNVEDARRIAFGGHQRHKTVALDGTLFQKSGVISGGASDLKAKARRWDEKAVDKLKEKKERLTEELKEQMKAKRKEAELRQVQSQAHGLQMRLKYSQSDLEQTKTRHLALNLQEKSKLESELANFGPRINDIKRIIQSREREMKDLKEKMNQVEDEVFEEFCREIGVRNIREFEEEKVKRQNEIAKKRLEFENQKTRLGIQLDFEKNQLKEDQDKVHMWEQTVKKDENEIEKLKKEEQRHMKIIDETMAQLQDLKNQHLAKKSEVNDKNHEMEEIRKKLGGANKEMTHLQKEVTAIETKLEQKRSDRHNLLQACKMQDIKLPLSKGTMDDISQEEGSSQGEDSVSGSQRISSIYAREALIEIDYGDLCEDLKDAQAEEEIKQEMNTLQQKLNEQQSVLQRIAAPNMKAMEKLESVRDKFQETSDEFEAARKRAKKAKQAFEQIKKERFDRFNACFESVATNIDEIYKALSRNSSAQAFLGPENPEEPYLDGINYNCVAPGKRFRPMDNLSGGEKTVAALALLFAIHSYKPAPFFVLDEIDAALDNTNIGKVANYIKEQSTCNFQAIVISLKEEFYTKAESLIGVYPEQGDCVISKVLTFDLTKYPDANPNPNEQ

The assay deals with β-catenin (human (endogenous in MCF7)) (UniProt P35222). Briefly: co-IP; 800 μg total protein extract from MCF7 cells, precleared with Dynabeads protein A; overnight at 4 °C with 7 μg β-catenin antibody coupled to Dynabeads protein A; Western blot for NIPBL, RAD21, SMC1A and SMC3; IgG-coated beads as control. In general terms: A western blot detects proteins with antibodies after separation by electrophoresis.
As to SMC3 (from UniProt Q9UQE7 1-1217), the binding entry is “binds”.
In the case of NIPBL (from UniProt Q6KC79 1-2804), the binding entry was “binds”.
As for B1, the binding entry is reported as “binds”.
For B2, the binding result was “binds”.
